Measured values taken from patent publication US20140315301A1.
Results are given in words; binding and its absence hold for the method and conditions named. In cells and extracts the contact can be indirect. Some entries that bind do so weakly or less than the wild type.

The chains behind the UniProt entries cited, without tags or fusion partners.
UniProt P20263: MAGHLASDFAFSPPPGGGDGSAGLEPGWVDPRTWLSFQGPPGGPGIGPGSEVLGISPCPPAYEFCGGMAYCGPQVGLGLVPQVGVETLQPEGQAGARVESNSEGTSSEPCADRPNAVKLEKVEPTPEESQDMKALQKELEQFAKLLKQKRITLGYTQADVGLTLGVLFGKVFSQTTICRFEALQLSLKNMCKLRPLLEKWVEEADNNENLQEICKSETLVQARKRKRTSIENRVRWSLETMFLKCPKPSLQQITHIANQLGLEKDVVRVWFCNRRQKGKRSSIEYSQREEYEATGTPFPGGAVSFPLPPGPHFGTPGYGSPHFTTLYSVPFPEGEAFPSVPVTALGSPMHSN

Target: endogenously labeled Flag-tagged Oct4 in murine V6.5 ESCs (mouse) (UniProt P20263)
Assay: co-IP of endogenously Flag-tagged Oct4 from murine V6.5 ESCs in 2i/LIF, immunoblot

- binding: binds
B1: Nanog, endogenous, in murine V6.5 ESCs (protein, mouse, UniProt Q80Z64 1-305, looked up)
chain: MSVGLPGPHSLPSSEEASNSGNASSMPAVFHPENYSCLQGSATEMLCTEAASPRPSSEDLPLQGSPDSSTSPKQKLSSPEADKGPEEEENKVLARKQKMRTVFSQAQLCALKDRFQKQKYLSLQQMQELSSILNLSYKQVKTWFQNQRMKCKRWQKNQWLKTSNGLIQKGSAPVEYPSIHCSYPQGYLVNASGSLSMWGSQTWTNPTWSSQTWTNPTWNNQTWTNPTWSSQAWTAQSWNGQPWNAAPLHNFGEDFLQPYVQLQQNFSASDLEVNLEATRESHAHFSTPQALELFLNYSVTPPGEI
